The list shows a part of the results, in another mix than the full data. For some assays here: At the low end of the ranking, values are background and their order means little. The list shows a part of the results. For some assays here: Construct or isoform of the protein are uncertain.

The first test addresses T1, ETS1 (UniProt P14921).
T1 sequence: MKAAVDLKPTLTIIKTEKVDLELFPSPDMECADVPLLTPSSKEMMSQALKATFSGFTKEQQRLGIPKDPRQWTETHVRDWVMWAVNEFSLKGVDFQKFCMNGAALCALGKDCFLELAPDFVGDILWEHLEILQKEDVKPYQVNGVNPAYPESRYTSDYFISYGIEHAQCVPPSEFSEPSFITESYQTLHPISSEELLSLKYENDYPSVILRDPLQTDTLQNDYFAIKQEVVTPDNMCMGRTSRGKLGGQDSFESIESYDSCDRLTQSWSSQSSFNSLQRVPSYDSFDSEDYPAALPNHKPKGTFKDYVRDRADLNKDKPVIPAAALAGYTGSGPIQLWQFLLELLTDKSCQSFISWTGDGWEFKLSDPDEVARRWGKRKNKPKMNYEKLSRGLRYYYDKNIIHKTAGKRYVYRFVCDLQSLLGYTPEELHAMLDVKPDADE
The experiment in a line: DAPPL (digital affinity profiling via proximity ligation, sequencing). To be noted: 10 mM Tris-HCl pH 7.5, 50 mM NaCl, 1 mM DTT, 4% glycerol, room temperature, 30 min; GST-TFs on glutathione beads, 16-mer random dsDNA library, 0.1% …; high values mean tight binding; double strand, one strand shown; scale: fold enrichment (6-mer frequency, TF over GST control).
In the case of TAGACT, the binding signal amounted to 1.04.

ATTAAA: the binding signal stood at 1.17.

In turn, AATGGA came in with a binding signal of 0.989.

The sequence CTGCTC had a binding signal of 1.32.

Sequence CTCTAC had a binding signal of 1.54.

The sequence CATGCG registered a binding signal of 0.942.

For TGGCAC, the binding signal turned out to be 1.23.

Turning to ATTGCA, the binding signal is 1.16.

As for TGGCGC, the binding signal was 0.848.

Sequence ACACAT came in with a binding signal of 1.27.

CTTTGA yielded a binding signal of 1.24.

The sequence ATGGGG yielded a binding signal of 1.14.

Take TCCCTG: the binding signal was 1.41.

As for CGATCA, the binding signal amounted to 1.13.

GTCACT gave a binding signal of 1.08.

Turning to CCGCCA, the binding signal worked out at 1.32.

As to CAAGAA, the binding signal was 1.12.

Regarding TGCGTC, the binding signal turned out to be 1.03.

Turning to GATCAA, the binding signal is 0.97.

GTAAAT: the binding signal amounted to 1.15.

Consider CCGGGT, for which the binding signal turned out to be 1.16.

In turn, TGTCAA came in with a binding signal of 1.06.

CAAAAG returned a binding signal of 0.97.

The sequence ATTTAA displayed a binding signal of 1.2.

Consider TGTCCG, for which the binding signal was 1.51.

Take TCAATG: the binding signal amounted to 1.06.

The sequence GCTGGC gave a binding signal of 0.922.

Sequence TATGTC returned a binding signal of 1.11.

Turning to AACGCC, the binding signal came out at 1.11.

TCGAAC showed a binding signal of 0.954.

Take AAGCTG: the binding signal was found to be 1.17.

In turn, CCGTTT gave a binding signal of 1.28.

In the case of TTTAGT, the binding signal was 1.06.

AACGCG yielded a binding signal of 0.952.

As for AATGTT, the binding signal stood at 1.67.

TCGACG: the binding signal came out at 0.981.

On to CCTTCT, for which the binding signal stood at 1.59.

TGCGGC came in with a binding signal of 0.932.

As to CGGTTT, the binding signal amounted to 1.23.

Take TTACAT: the binding signal was 1.39.

The next test has as its target T2, SPDEF (UniProt O95238).
T2 sequence: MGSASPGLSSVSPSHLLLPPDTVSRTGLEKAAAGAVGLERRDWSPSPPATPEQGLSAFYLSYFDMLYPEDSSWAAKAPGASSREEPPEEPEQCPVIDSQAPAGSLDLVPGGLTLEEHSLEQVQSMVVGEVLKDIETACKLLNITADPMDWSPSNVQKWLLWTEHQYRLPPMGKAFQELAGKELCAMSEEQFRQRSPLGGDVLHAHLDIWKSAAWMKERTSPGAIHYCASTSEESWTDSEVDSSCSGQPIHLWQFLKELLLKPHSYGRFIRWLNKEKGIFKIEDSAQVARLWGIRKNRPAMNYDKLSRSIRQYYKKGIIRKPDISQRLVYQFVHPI
The test is described as above. To be noted: 10 mM Tris-HCl pH 7.5, 50 mM NaCl, 1 mM DTT, 4% glycerol, room temperature, 30 min; GST-TFs on glutathione beads, 16-mer random dsDNA library, 0.1% …; high values mean tight binding; double strand, one strand shown; scale: fold enrichment (6-mer frequency, TF over GST control).
TAGACT registered a binding signal of 0.966.

In turn, ATTAAA yielded a binding signal of 1.14.

AATGGA: the binding signal stood at 0.952.

As to CTGCTC, the binding signal was determined as 1.26.

As for CTCTAC, the binding signal was 1.54.

CATGCG: the binding signal was 1.01.

In turn, TGGCAC came in with a binding signal of 1.12.

In turn, ATTGCA yielded a binding signal of 1.18.

The sequence TGGCGC came in with a binding signal of 0.911.

Turning to ACACAT, the binding signal came to 1.31.

CTTTGA returned a binding signal of 1.1.

ATGGGG showed a binding signal of 0.916.

Sequence TCCCTG came in with a binding signal of 1.19.

CGATCA returned a binding signal of 0.921.

As to GTCACT, the binding signal is 0.979.

Regarding CCGCCA, the binding signal came out at 1.29.

With CAAGAA, the binding signal is 1.06.

The sequence TGCGTC gave a binding signal of 0.98.

The sequence GATCAA gave a binding signal of 1.05.

In turn, GTAAAT returned a binding signal of 1.13.

Sequence CCGGGT returned a binding signal of 1.79.

TGTCAA came in with a binding signal of 0.955.

As to CAAAAG, the binding signal worked out at 0.965.

Sequence ATTTAA showed a binding signal of 1.24.

TGTCCG: the binding signal is 1.8.

Sequence TCAATG displayed a binding signal of 1.12.

On to GCTGGC, for which the binding signal was determined as 0.893.

Turning to TATGTC, the binding signal came to 1.14.

In turn, AACGCC came in with a binding signal of 0.942.

The sequence TCGAAC returned a binding signal of 0.885.

Consider AAGCTG, for which the binding signal came out at 0.992.

With CCGTTT, the binding signal was found to be 1.57.

TTTAGT: the binding signal came out at 1.04.

Sequence AACGCG displayed a binding signal of 0.996.

The sequence AATGTT displayed a binding signal of 1.44.

In turn, TCGACG showed a binding signal of 1.05.

The sequence CCTTCT displayed a binding signal of 1.84.

TGCGGC returned a binding signal of 0.991.

CGGTTT: the binding signal stood at 1.36.

As to TTACAT, the binding signal came to 1.41.

Source of the values: paper PMC7862700.
